Results deposited as PubChem BioAssay AID1159584 (Peter MacCallum Cancer Centre, 2016)

Assay: 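Genes that CDH1-null MCF10A cells selectively depend on to survive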 (primary screen)
System: human MCF10A breast epithelial cells, parental and CDH1-null
Knock-down reagent: siRNA against human genes
Read-out: 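Cell viability by CellTiter-Glo ATP luminescence, each line scaled to the mean of mock wells across plates, then CDH1-null over parental ratio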
Reading the numbers: CDH1-null / parental viability ratio: higher = CDH1-null cells survive relatively better than parental
The deposit covers about 18,000 reagents; below is an unselected part. Further read-outs or replicates are left out here. Not stated in the record: the amount of reagent, the time to read-out.

Gene	CDH1-null / parental viability ratio
ORAI2	1.03
LRRC56	1.03
URB2	0.96
VWF	1.09
CHD3	0.81
IRF2BP1	0.99
TRAPPC3	1.06
PPP1R36	1.07
USF1	1.13
SHISA2	0.76
PROX2	0.94
MPZL3	0.63
RTN2	1.01
GABRB1	1.28
CST11	0.96
FSAF1	1.04
ADIPOR2	1.09
KLHL5	1.17
TDRD3	0.98
SLC35D4	0.94
UGT1A9	0.85
VGLL1	0.92
JOSD2	1.1
NXF1	0.67
PAK1IP1	1.17
WDR91	1.02
CLCNKB	1.61
FCSK	0.86
SMAD1	1.17
PPIB	0.88
SPATA17	1.05
MPZ	1.07
ABHD2	1.07
GABRB2	2
GUK1	0.66
COX6B2	0.84
BMPER	1.11
AEBP1	1.05
ZNF776	1
ZWILCH	1.04
TSNAX	1.18
CHCHD10	1.02
DCAF11	1.01
TMEM98	1.01
SYT11	1.6
HEATR9	1.07
PRSS27	1.13
TENT2	1.1
BMP2K	0.99
FNDC11	0.87
HR	1
GGA3	0.81
CRTC2	0.93
MBOAT7	1.04
NR1H3	0.78
CLLU1	0.78
TM4SF19	0.88
OR2A14	1.25
IRX6	1.06
RHBDD2	1.03
PLEKHA5	1.04
TSN	1.15
ANTXR1	0.82
FAM153B	1.19
ITPKC	0.99
C2CD4B	0.79
NR2C2AP	0.81
LRP6	0.9
